Experimental findings from US20110038791A1, “METHODS FOR INHIBITING SIX1 AND EYA PROTEINS” (priority 2008, published 2011) are described below.

These are yes or no findings as the source states them, for the method shown. For part of these data: In cells and extracts the contact can be indirect. Some binding calls cover weakened binding; strength is not graded here.

Assay [1] deals with T1, Six1 (UniProt Q15475).
T1 sequence (looked up): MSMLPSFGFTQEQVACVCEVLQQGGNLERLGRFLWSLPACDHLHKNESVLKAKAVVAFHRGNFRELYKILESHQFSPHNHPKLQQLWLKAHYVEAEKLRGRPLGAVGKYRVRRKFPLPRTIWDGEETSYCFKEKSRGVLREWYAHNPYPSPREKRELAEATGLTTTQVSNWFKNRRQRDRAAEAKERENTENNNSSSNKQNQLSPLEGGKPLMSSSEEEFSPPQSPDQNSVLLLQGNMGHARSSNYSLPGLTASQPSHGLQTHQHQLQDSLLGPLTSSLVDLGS
Nature of the assay: gel filtration co-elution, SDS-PAGE of fractions. In general terms: In gel filtration, larger molecules generally elute earlier.

For assay [2], the target named is T2, Eya2 Eya Domain (ED) (human) (UniProt O00167).
T2 sequence (looked up): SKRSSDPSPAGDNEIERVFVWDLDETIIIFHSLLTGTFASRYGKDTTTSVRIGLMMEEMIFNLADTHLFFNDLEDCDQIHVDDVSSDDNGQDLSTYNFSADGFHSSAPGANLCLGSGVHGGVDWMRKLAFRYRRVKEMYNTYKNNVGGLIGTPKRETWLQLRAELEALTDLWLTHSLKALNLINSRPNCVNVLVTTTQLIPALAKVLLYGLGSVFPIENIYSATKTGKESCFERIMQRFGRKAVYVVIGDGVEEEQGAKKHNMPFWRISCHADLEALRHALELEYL
As to the kind of experiment: gel filtration co-elution, SDS-PAGE of fractions.

Assay [3] has as its target T2, Eya2 Eya Domain (ED) (human). Nature of the assay: ELISA, plate coated with Eya2 ED, Six1 detected with anti-Six1 antibody and HRP secondary antibody. In general terms: In an ELISA, binding on a coated surface is turned into a signal by an enzyme label.

B1: Eya2 Eya Domain (ED) (enzyme, human, UniProt O00167 253-538, looked up)
chain: SKRSSDPSPAGDNEIERVFVWDLDETIIIFHSLLTGTFASRYGKDTTTSVRIGLMMEEMIFNLADTHLFFNDLEDCDQIHVDDVSSDDNGQDLSTYNFSADGFHSSAPGANLCLGSGVHGGVDWMRKLAFRYRRVKEMYNTYKNNVGGLIGTPKRETWLQLRAELEALTDLWLTHSLKALNLINSRPNCVNVLVTTTQLIPALAKVLLYGLGSVFPIENIYSATKTGKESCFERIMQRFGRKAVYVVIGDGVEEEQGAKKHNMPFWRISCHADLEALRHALELEYL
As to B1, in assay [1], the binding result is on record as “binds”.

B2: Six1 (protein, UniProt Q15475 1-284, looked up)
chain: MSMLPSFGFTQEQVACVCEVLQQGGNLERLGRFLWSLPACDHLHKNESVLKAKAVVAFHRGNFRELYKILESHQFSPHNHPKLQQLWLKAHYVEAEKLRGRPLGAVGKYRVRRKFPLPRTIWDGEETSYCFKEKSRGVLREWYAHNPYPSPREKRELAEATGLTTTQVSNWFKNRRQRDRAAEAKERENTENNNSSSNKQNQLSPLEGGKPLMSSSEEEFSPPQSPDQNSVLLLQGNMGHARSSNYSLPGLTASQPSHGLQTHQHQLQDSLLGPLTSSLVDLGS
For the molecule B2, the binding entry in assay [2] and in assay [3] was “binds” in each case.
